# No constants are given. Whether binding was seen depends on the method and setting. Binding seen in cells or lysates may run through a third protein. A result given as binding can be weak or reduced; the word gives no strength. Tags and fused reporters may be left off the sequences shown.
# Target: T1, Nsa1-5FLAG (S. pombe) (UniProt O94698)
# T1 sequence: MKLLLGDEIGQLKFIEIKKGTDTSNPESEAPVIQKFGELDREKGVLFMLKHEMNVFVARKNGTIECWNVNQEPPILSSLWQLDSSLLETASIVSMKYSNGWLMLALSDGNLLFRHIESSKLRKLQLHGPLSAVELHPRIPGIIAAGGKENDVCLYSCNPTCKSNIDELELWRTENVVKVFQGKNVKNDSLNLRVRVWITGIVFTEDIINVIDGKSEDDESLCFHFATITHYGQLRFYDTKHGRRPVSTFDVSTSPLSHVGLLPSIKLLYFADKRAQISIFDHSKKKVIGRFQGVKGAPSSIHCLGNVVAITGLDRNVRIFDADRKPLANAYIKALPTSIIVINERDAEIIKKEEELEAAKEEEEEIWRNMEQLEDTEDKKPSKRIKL
# Experiment: co-IP; Rix1-5FLAG or Nsa1-5FLAG immunoprecipitated with anti-FLAG M2 antibody and Dynabeads Protein G, 1 hr at 4°C, from S. pombe whole cell extracts; western blot with anti-HA, anti-FLAG or anti-GFP; wild-type, mdn1-ts26 (6 hr at 36°C) or mdn1-F1093L cells, untreated or treated with Rbin-1 (1 uM) for the indicated times
substance,measurement,value
Rix7-GFP (S. pombe),binding,binds
